From PubChem BioAssay AID2284324 (EPA ToxCast)
Inconclusive means that the source gave no clear call. Where the call is inconclusive, the potency comes from a doubtful curve fit.

test system: Japanese medaka Glucocorticoid Receptor (GR), gene 101170451; assay: ATG_jmGR_EcoTox2: Attagene TRANS-FACTORIAL EcoTox-2 HepG2 Assay for Japanese medaka Glucocorticoid Receptor (GR); active = hit-call score of the fitted dose curve at least 0.9, where 1 is the maximum; inconclusive = response in the unintended direction; inactive = score below 0.9
Method: ATG_EcoTox2 is a cell-based, multiplexed assay created by modifying the existing Attagene TRANS-FACTORIAL system to include a panel of nuclear receptors from some or all the following species: human (Homo sapiens), african clawed frog (Xenopus laevis), rainbow trout (Oncorhynchus mykiss), japanese medaka (Oryzias latipes), and zebrafish (Danio rerio). The ECOTOX2-FACTORIAL format uses HepG2, a human liver cell line, with measurements taken at 24 hours after chemical dosing in a 24-well plate. ATG_jmGR_EcoTox2 is one of 29 assay components calculated in the ATG_EcoTox2 assay. It is designed to make measurements of mRNA induction, a form of inducible reporter, as detected with fluorescence intensity signals by Reverse transcription polymerase chain reaction (RT-PCR) and Capillary electrophoresis technology.The assay endpoint ATG_jmGR_EcoTox2 was analyzed in the positive analysis fitting direction relative to DMSO as the negative control and baseline of activity. Using a type of inducible reporter, measures of mRNA for gain-of-signal activity can be used to understand the reporter gene at the transcription factor-level as they relate to the gene for glucocorticoid receptor. Furthermore, this assay endpoint can be referred to as a primary readout, because this assay has produced multiple assay endpoints where this one serves a reporter gene function. […]
Human liver HepG2 cells are transiently transfected with multiple reporter transcription units (MRTUs) in 6-well plates using FuGene 6 reagent (Roche; 3 ml FuGene/1 mg DNA). […] A major difference between the CIS and TRANS system is that in CIS activities of endogenous TFs are measured, whereas the TRANS assay evaluates changes in activities of exogenous, chimeric NR-Gal4 proteins. […] The fragments were purified using Qiaquick PCR columns (Qiagen), analyzed on an ABI 3130xL genetic analyzer (Applied Biosystems) with peak positions identified by using a set of X-rhodamine (ROX)-labeled MapMarker1000 molecular weight standards (BioVentures). […]

| Structure (SMILES) | AC50 |
| --- | --- |
| [Cl][Sn]([c]1ccccc1)([c]1ccccc1)[c]1ccccc1 | inconclusive: 1390 nM |
| O=C(O)C(F)(F)C(F)(F)C(F)(F)C(F)(F)C(F)(F)C(F)(F)C(F)(F)F | inconclusive: 380 nM |
| O=S(=O)(O)C(F)(F)C(F)(F)C(F)(F)C(F)(F)C(F)(F)C(F)(F)F | inconclusive: 50000 nM |
